PubChem BioAssay AID743121, NCATS | 2013
Screen: 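Genes whose silencing strengthens cell killing by camptothecin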 (primary screen). Cells: MDA-MB-231 cells, a human breast cancer line. Reagents: single siRNA against human genes, 20 nM siRNA (0.8 pmol per well). Timing: 120 h (drug added 48 h after transfection, read 72 h later). Treatment: camptothecin 20 nM (about EC30) for 72 h; vehicle 0.1% DMSO in parallel plates. Measurement: 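Cell viability by ATP luminescence (CellTiter-Glo) as % of non-targeting siRNA wells, and the log2 ratio of viability without drug over viability with camptothecin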. Scale: log2 vehicle/camptothecin viability: higher = stronger sensitisation to camptothecin. Rule for the call: 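Active genes have an RSA gene-level p-value below 0.001, computed from the ratios of their separate siRNAs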.
This is an unselected part of about 26,000 deposited reagents. 167 of all reagents (0.63%) count as active. 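Calls are per gene from RSA p-values that are not deposited; an individual active-marked siRNA can sensitise only weakly.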 The numbers tell different reagents against one gene apart. Further read-outs or replicates are left out here.

log2 vehicle/camptothecin viability, by gene and reagent
TAAR1 (trace amine associated receptor 1): #1 -0.115 inactive; #2 -0.527 inactive; #3 -0.156 inactive; #4 0.0651 inactive
INSL3 (insulin like 3): #1 -0.32 inactive; #2 -0.113 inactive; #3 0.34 inactive
RAB14 (RAB14, member RAS oncogene family): #1 -0.0818 inactive; #2 0.114 inactive; #3 0.0715 inactive; #4 0.158 inactive
SEZ6 (seizure related 6 homolog): #1 0.0306 inactive; #2 0.114 inactive; #3 -0.267 inactive; #4 -0.268 inactive
RAB39A (RAB39A, member RAS oncogene family): #1 0.000715 inactive; #2 0.187 inactive; #3 -0.37 inactive
PPAN (peter pan homolog): #1 -0.0691 inactive; #2 -0.324 inactive; #3 -0.139 inactive; #4 -0.216 inactive
MUL1 (mitochondrial E3 ubiquitin protein ligase 1): #1 -0.0361 inactive; #2 -0.102 inactive; #3 0.0699 inactive
AKT1 (AKT serine/threonine kinase 1): #1 0.00788 inactive; #2 0.276 inactive; #3 0.192 inactive; #4 -0.256 inactive
STX8 (syntaxin 8): #1 -0.0101 inactive; #2 -0.834 inactive; #3 -0.331 inactive; #4 -0.426 inactive
RNF144A (ring finger protein 144A): #1 -0.0573 inactive; #2 -0.0277 inactive; #3 -0.445 inactive
SP3 (Sp3 transcription factor): #1 -0.35 inactive; #2 -0.17 inactive; #3 -0.289 inactive; #4 0.823 inactive
LOC390282: #1 -0.129 inactive; #2 -0.0703 inactive; #3 -0.46 inactive
AIMP1: #1 -0.146 inactive; #2 -0.151 inactive; #3 -0.39 inactive; #4 0.313 inactive
F2RL1 (F2R like trypsin receptor 1): #1 -0.314 inactive; #2 -0.0113 inactive; #3 -0.315 inactive; #4 -0.271 inactive
SLC6A15: #1 0.174 inactive; #2 0.284 inactive; #3 0.0534 inactive
ATXN3 (ataxin 3): #1 -0.389 inactive; #2 -0.184 inactive; #3 0.676 inactive; #4 -0.192 inactive
RRAS2 (RAS related 2): #1 -0.261 inactive; #2 -0.138 inactive; #3 0.127 inactive
GDPD3 (glycerophosphodiester phosphodiesterase domain containing 3): #1 -0.0794 inactive; #2 -0.124 inactive; #3 0.158 inactive; #4 -0.188 inactive
RAD23B (RAD23 nucleotide excision repair protein B): #1 0.114 inactive; #2 -0.195 inactive; #3 -0.0819 inactive

A portion from the list above:
log2 vehicle/camptothecin viability, by gene and reagent
ATXN3 (ataxin 3): #1 -0.389 inactive; #2 -0.184 inactive; #3 0.676 inactive; #4 -0.192 inactive
RRAS2 (RAS related 2): #1 -0.261 inactive; #2 -0.138 inactive
